PubChem BioAssay AID1671195 – Yale University | 2021
Here is an unselected part of about 22,000 reagents. About 1,510 of them (6.9%) count as active. 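Active includes knockdowns raising or lowering LDL uptake; positive z-scores mean more uptake, negative mean less.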 A number with no mark means an inactive call. Reagents against one gene are numbered here.

Test: 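Genes whose knockdown alters LDL uptake in liver cancer cells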 (primary screen)
Cells: human Huh7 hepatoma cells
Reagent: siRNA pool against human genes, 18 nM
Time to read-out: about 2 to 2.5 days of knockdown, then 8 h LDL uptake
Challenge: DiI-labelled LDL at 30 µg/ml for 8 h, in lipoprotein-deficient serum medium
Read-out: 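Fluorescent LDL signal imaged in cells, scaled to the plate median, robust z-score for each replicate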
Direction: robust z-score: higher = more LDL uptake after knockdown
Rule for the call: 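a gene counts as active if at least two replicate z-scores exceed ±2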

target	reagent no.	robust z-score, replicate 1	robust z-score, replicate 2	robust z-score, replicate 3
RAMP3 (receptor activity modifying protein 3)	1	-1.21	-1.45	-1.39
RBPJL	1	-0.615	-0.51	-1.02
UNC45A (unc-45 myosin chaperone A)	1	1.26	-0.594	1.09
DENND1B (DENN domain containing 1B)	1	1.43	0.296	0.806
DENND1B (DENN domain containing 1B)	2	-1.36	-1.2	-1.46
ST18 (ST18 C2H2C-type zinc finger transcription factor)	1	-0.65	-0.848	-1.15
ECM2 (extracellular matrix protein 2)	1	-0.555	-1.88	-0.839
CD34 (CD34 molecule)	1	-1.25	-0.967	-0.791
ARHGEF19 (Rho guanine nucleotide exchange factor 19)	1	-2.14	-1.52	-1.77
FAM66C (family with sequence similarity 66 member C)	1	0.909	-0.05	-0.0999
LOC400212	1	0.875	0.811	0.398
LOC285638	1	-0.254	-0.193	-0.226
PILRA (paired immunoglobin like type 2 receptor alpha)	1	-2.55	-0.00119	0.165
MTA3 (metastasis associated 1 family member 3)	1	-0.291	-0.17	-0.108
CERCAM (cerebral endothelial cell adhesion molecule)	1	-0.29	-0.849	0.145
SKOR2 (SKI family transcriptional corepressor 2)	1	-0.903	-0.67	-0.158
EXT2 (exostosin glycosyltransferase 2)	1	-1.61	-1.54	-1.21
FAM193A (family with sequence similarity 193 member A)	1	-0.165	1.91	0.634
MT1G (metallothionein 1G)	1	0.593	-1.15	0.202
SLC25A38P1 (SLC25A38 pseudogene 1)	1	0.324	0.0435	0.227
CRHR2 (corticotropin releasing hormone receptor 2)	1	-1.84	-0.75	-1.32
CABLES2 (Cdk5 and Abl enzyme substrate 2)	1	0.404	0.308	-0.065
FNDC3A (fibronectin type III domain containing 3A)	1	-0.368	-0.564	-0.391
RPS27L (ribosomal protein S27 like)	1	1.01	-0.0576	-2.43
NDUFA9 (NADH:ubiquinone oxidoreductase subunit A9)	1	1.14	0.244	0.859
LOC388140 (retired record)	1	-1.46	-1.02	-1.35
SLC22A25	1	-1.28	-1.12	-1.34
SLC4A9	1	-1.19	-1.11	-0.909
MCM8	1	-1.11	-0.595	-0.93
ZNF572 (zinc finger protein 572)	1	-0.44	-1.51	-1.16
TAGLN2 (transgelin 2)	1	-0.618	-0.657	-1.71
EFCAB6 (EF-hand calcium binding domain 6)	1	-0.703	-0.577	-0.158
LRRC25 (leucine rich repeat containing 25)	1	-1.06	-0.917	-1.21
DERA (deoxyribose-phosphate aldolase)	1	-2.14 (active)	-1.25	-2.26
RPP40 (ribonuclease P/MRP subunit p40)	1	-0.427	-0.703	-0.756
HSP90AA1 (heat shock protein 90 alpha family class A member 1)	1	2.37 (active)	3.22	2.85
FOXE3 (forkhead box E3)	1	1.32	0.364	-0.156
ARL8A (ARF like GTPase 8A)	1	0.199	0.22	0.71
L3MBTL2 (L3MBTL histone methyl-lysine binding protein 2)	1	-0.357	-0.313	-0.575
OR51G2 (olfactory receptor family 51 subfamily G member 2)	1	0.745	0.65	1.57
ADRA1A (adrenoceptor alpha 1A)	1	0.483	-0.579	-0.263
LOC158825 (retired record)	1	-0.157	-0.241	-0.0522
CDYL (chromodomain Y like)	1	0.363	0.23	0.0358
COX8C (cytochrome c oxidase subunit 8C)	1	0.111	0.425	0.283
NCOA5 (nuclear receptor coactivator 5)	1	-0.473	-0.584	-0.553
CRISPLD1 (cysteine rich secretory protein LCCL domain containing 1)	1	0.57	0.99	0.197
ADH4 (alcohol dehydrogenase 4 (class II), pi polypeptide)	1	-0.194	-0.351	-0.783
BICRA	1	-1.12	1.35	1.55
LHFPL7 (LHFPL tetraspan subfamily member 7)	1	1.02	1.16	1.1
CTTN (cortactin)	1	-1.05	-1.51	-1.62
LOC441817 (retired record)	1	-1.61	-1.88	-1.4
FBXL4 (F-box and leucine rich repeat protein 4)	1	-0.54	-0.13	-0.685
LOC440842 (retired record)	1	0.512	0.166	0.0563
TOGARAM2 (TOG array regulator of axonemal microtubules 2)	1	0.134	-0.79	-0.839
IGIP (IgA inducing protein)	1	3.9 (active)	4.74	4.22
LOC441148 (retired record)	1	-0.125	-0.435	-0.188
UFSP1 (UFM1 specific peptidase 1)	1	0.101	1.69	0.913
MSI1 (musashi RNA binding protein 1)	1	-0.296	1.16	-0.529
MTRF1 (mitochondrial translation release factor 1)	1	-1.64	-1.56	-2.01
LYRM4 (LYR motif containing 4)	1	0.0886	-0.372	-0.862
PBX3 (PBX homeobox 3)	1	0.783	0.842	1.26
TMEM209 (transmembrane protein 209)	1	-0.0602	-0.517	-0.512
ZNF84 (zinc finger protein 84)	1	5.03 (active)	4.87	2.61
LDHAL6A (lactate dehydrogenase A like 6A)	1	1.8	1.69	1.72
LOC345378 (retired record)	1	-1.39	-1.79	-1.02
RAC3 (Rac family small GTPase 3)	1	0.0573	-0.111	-0.845
LY6G6C (lymphocyte antigen 6 family member G6C)	1	-0.422	0.0175	-0.00489
TRAPPC2L (trafficking protein particle complex subunit 2L)	1	2.19 (active)	2.02	0.327
SLC27A4	1	-0.705	-0.877	-1.83
TMEM154 (transmembrane protein 154)	1	-0.148	-0.673	-0.608
ZNF529 (zinc finger protein 529)	1	1.82	1.34	0.0268
CIDEA (cell death inducing DFFA like effector a)	1	1.83	1.82	0.85
TRMT10C (tRNA methyltransferase 10C, mitochondrial RNase P subunit)	1	0.0913	-0.608	0.454
LINC00954 (long independently transcribed non-coding RNA 954)	1	0.0581	-0.272	-0.0855
DUSP1 (dual specificity phosphatase 1)	1	0.122	0.259	0.164
PHTF2 (putative homeodomain transcription factor 2)	1	0.415	0.465	1.03
SF3B4 (splicing factor 3b subunit 4)	1	-0.781	-0.779	-0.105
CPLANE2 (ciliogenesis and planar polarity effector complex subunit 2)	1	2.58	1.26	1.24
ACIN1 (apoptotic chromatin condensation inducer 1)	1	0.633	0.589	-0.94
IGLJCOR18 (immunoglobulin lambda joining-constant/OR18 (pseudogene))	1	-0.559	-0.178	-0.365
CCT2 (chaperonin containing TCP1 subunit 2)	1	0.351	0.255	0.759
ARMC3 (armadillo repeat containing 3)	1	0.568	0.567	0.268
ANAPC1 (anaphase promoting complex subunit 1)	1	-0.77	-0.781	-0.536
FBXO34 (F-box protein 34)	1	1.53	2.16	0.00998
IL5RA (interleukin 5 receptor subunit alpha)	1	-0.0558	0.651	0.249
METTL4 (methyltransferase 4, N6-adenosine)	1	1.64	1.75	1.03
AMPD3 (adenosine monophosphate deaminase 3)	1	-1.16	-0.556	-0.986

Reformatted: entries from further up
{"target":"CD34 (CD34 molecule)","reagent no.":1,"robust z-score, replicate 1":-1.25,"robust z-score, replicate 2":-0.967,"robust z-score, replicate 3":-0.791}
{"target":"ARHGEF19 (Rho guanine nucleotide exchange factor 19)","reagent no.":1,"robust z-score, replicate 1":-2.14,"robust z-score, replicate 2":-1.52,"robust z-score, replicate 3":-1.77}
{"target":"FAM66C (family with sequence similarity 66 member C)","reagent no.":1,"robust z-score, replicate 1":0.909,"robust z-score, replicate 2":-0.05,"robust z-score, replicate 3":-0.0999}
{"target":"LOC400212","reagent no.":1,"robust z-score, replicate 1":0.875,"robust z-score, replicate 2":0.811,"robust z-score, replicate 3":0.398}
{"target":"LOC285638","reagent no.":1,"robust z-score, replicate 1":-0.254,"robust z-score, replicate 2":-0.193,"robust z-score, replicate 3":-0.226}
{"target":"PILRA (paired immunoglobin like type 2 receptor alpha)","reagent no.":1,"robust z-score, replicate 1":-2.55,"robust z-score, replicate 2":-0.00119,"robust z-score, replicate 3":0.165}
{"target":"MTA3 (metastasis associated 1 family member 3)","reagent no.":1,"robust z-score, replicate 1":-0.291,"robust z-score, replicate 2":-0.17,"robust z-score, replicate 3":-0.108}
{"target":"CERCAM (cerebral endothelial cell adhesion molecule)","reagent no.":1,"robust z-score, replicate 1":-0.29,"robust z-score, replicate 2":-0.849,"robust z-score, replicate 3":0.145}
{"target":"SKOR2 (SKI family transcriptional corepressor 2)","reagent no.":1,"robust z-score, replicate 1":-0.903,"robust z-score, replicate 2":-0.67,"robust z-score, replicate 3":-0.158}
{"target":"EXT2 (exostosin glycosyltransferase 2)","reagent no.":1,"robust z-score, replicate 1":-1.61,"robust z-score, replicate 2":-1.54,"robust z-score, replicate 3":-1.21}
{"target":"FAM193A (family with sequence similarity 193 member A)","reagent no.":1,"robust z-score, replicate 1":-0.165,"robust z-score, replicate 2":1.91,"robust z-score, replicate 3":0.634}
{"target":"MT1G (metallothionein 1G)","reagent no.":1,"robust z-score, replicate 1":0.593,"robust z-score, replicate 2":-1.15,"robust z-score, replicate 3":0.202}
{"target":"SLC25A38P1 (SLC25A38 pseudogene 1)","reagent no.":1,"robust z-score, replicate 1":0.324,"robust z-score, replicate 2":0.0435,"robust z-score, replicate 3":0.227}
